# Reference: article PMC4177678
# Chains of the proteins cited; added tags and fusions are not shown. Lines headed by an entry give the natural chain unless they say otherwise; changes in a name come on top. Residues count along the entry.
# UniProt Q01371: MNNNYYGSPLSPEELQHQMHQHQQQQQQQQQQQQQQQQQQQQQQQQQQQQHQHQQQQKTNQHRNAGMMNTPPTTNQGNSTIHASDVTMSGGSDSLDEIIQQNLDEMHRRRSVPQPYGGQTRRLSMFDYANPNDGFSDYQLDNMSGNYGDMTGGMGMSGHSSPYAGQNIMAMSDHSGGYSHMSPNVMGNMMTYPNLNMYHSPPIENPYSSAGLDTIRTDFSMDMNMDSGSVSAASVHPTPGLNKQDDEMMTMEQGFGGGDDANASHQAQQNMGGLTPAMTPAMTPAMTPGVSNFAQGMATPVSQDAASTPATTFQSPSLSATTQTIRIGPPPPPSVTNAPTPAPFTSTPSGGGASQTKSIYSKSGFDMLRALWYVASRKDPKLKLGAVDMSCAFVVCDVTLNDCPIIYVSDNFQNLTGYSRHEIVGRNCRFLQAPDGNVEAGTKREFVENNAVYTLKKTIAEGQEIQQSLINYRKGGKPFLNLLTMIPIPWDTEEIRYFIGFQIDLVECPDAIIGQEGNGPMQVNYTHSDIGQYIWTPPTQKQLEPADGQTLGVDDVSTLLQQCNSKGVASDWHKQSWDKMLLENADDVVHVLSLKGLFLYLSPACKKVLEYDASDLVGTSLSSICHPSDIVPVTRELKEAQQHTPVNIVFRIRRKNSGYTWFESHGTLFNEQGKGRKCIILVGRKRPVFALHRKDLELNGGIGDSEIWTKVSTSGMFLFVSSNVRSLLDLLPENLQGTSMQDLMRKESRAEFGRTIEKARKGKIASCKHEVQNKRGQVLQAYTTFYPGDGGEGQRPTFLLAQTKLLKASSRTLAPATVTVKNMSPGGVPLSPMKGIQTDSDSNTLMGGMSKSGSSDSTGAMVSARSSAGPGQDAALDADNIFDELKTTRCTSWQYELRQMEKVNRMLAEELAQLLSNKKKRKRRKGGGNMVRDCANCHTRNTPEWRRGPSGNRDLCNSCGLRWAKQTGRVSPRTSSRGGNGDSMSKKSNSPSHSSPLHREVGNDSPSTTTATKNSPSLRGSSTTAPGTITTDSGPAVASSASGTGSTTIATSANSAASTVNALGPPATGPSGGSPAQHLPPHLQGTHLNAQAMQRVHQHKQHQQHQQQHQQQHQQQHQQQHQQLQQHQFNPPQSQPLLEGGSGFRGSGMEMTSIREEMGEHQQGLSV
# GST-WC-1 aa 1-300-6xHis: residues 1-300 of Q01371
# GST-WC-1 aa 100-300-6xHis: residues 100-300 of Q01371
# These are yes or no findings as the source states them, for the method shown. Binding seen in cells or lysates may run through a third protein. Some entries that bind do so weakly or less than the wild type.
# Tests used:
# [1] = target: GST-WC-1 aa 100-300-6xHis (Neurospora) (UniProt Q01371); experiment: pull-down; purified GST, GST-aa1-300 or GST-aa100-300 on glutathione beads incubated with 2 milligrams of cleared Neurospora lysate (SWI1 C-tagged with V5), rotated at least 2 hours, washed three times; Western blot; only the target purified
# [2] = target: GST-WC-1 aa 1-300-6xHis (Neurospora) (UniProt Q01371); experiment: as above
# [3] = target: T1, White Collar-2 (Neurospora crassa (endogenous in Neurospora lysate)) (UniProt P78714); experiment: co-IP; immunoprecipitation with WC-2 antibody from lysate of a Neurospora strain with SWI1 C-terminally tagged with V5; Western blot; with and without WC-1
# T1 sequence: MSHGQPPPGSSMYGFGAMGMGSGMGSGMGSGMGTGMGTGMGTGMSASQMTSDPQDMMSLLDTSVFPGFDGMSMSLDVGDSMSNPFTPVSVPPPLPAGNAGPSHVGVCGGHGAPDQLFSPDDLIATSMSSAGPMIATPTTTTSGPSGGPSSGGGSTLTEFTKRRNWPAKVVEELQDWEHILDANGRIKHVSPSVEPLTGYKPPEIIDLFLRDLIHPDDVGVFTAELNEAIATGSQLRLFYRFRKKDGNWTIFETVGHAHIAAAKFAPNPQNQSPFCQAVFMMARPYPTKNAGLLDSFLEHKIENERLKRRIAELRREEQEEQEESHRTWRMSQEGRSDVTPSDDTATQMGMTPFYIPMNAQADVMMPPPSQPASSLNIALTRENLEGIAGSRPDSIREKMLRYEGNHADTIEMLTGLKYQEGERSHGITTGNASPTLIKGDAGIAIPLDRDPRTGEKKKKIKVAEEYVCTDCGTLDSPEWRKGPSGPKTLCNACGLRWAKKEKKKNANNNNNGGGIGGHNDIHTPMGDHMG
substance,measurement,setting,value
actin (from UniProt P78711 1-375),binding,[1],no binding
same,binding,[2],no binding
White Collar-1 (from UniProt Q01371 1-1167),binding,[3],binds
